{"sequences": {"note": "Amino acid sequences for entries named in this document (tags omitted). A change or cut given only in a name is not applied to a line headed by its entry.", "UniProt P52294": "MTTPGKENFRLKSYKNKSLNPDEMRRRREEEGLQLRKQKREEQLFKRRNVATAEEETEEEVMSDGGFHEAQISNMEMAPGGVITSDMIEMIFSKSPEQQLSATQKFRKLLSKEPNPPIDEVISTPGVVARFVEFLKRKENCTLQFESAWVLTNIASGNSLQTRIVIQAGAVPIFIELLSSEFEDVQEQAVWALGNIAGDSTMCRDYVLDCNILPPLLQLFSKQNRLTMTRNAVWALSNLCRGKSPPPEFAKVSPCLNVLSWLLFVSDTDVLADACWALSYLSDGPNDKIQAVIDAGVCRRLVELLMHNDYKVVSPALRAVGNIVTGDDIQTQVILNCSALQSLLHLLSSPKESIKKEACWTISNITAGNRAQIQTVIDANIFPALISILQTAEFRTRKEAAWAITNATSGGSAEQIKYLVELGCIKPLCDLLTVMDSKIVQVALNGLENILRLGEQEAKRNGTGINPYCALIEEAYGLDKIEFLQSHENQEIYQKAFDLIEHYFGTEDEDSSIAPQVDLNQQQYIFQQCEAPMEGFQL", "UniProt Q14974": "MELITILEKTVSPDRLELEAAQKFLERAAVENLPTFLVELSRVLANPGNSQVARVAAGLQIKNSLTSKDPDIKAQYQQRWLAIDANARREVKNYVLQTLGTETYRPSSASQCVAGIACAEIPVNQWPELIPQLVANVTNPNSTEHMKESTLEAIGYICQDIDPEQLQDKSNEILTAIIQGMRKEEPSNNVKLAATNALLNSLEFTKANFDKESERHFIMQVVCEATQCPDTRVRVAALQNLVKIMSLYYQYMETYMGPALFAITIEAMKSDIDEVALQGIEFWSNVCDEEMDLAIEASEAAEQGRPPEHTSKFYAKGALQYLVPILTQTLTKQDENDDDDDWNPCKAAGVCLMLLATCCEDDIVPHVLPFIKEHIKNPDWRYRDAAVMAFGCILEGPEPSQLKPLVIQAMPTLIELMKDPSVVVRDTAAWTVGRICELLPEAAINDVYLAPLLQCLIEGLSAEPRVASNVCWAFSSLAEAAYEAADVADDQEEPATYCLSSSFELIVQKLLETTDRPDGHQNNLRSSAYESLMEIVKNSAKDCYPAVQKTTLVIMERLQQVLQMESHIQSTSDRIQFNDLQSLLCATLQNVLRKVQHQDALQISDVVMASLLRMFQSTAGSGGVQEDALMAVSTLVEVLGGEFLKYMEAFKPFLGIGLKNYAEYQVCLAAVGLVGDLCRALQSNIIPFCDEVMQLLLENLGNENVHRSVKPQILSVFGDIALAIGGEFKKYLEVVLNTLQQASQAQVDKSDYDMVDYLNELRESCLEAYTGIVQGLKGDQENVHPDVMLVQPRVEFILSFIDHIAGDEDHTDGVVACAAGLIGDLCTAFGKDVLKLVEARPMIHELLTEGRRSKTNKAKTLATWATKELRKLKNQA", "UniProt P42224": "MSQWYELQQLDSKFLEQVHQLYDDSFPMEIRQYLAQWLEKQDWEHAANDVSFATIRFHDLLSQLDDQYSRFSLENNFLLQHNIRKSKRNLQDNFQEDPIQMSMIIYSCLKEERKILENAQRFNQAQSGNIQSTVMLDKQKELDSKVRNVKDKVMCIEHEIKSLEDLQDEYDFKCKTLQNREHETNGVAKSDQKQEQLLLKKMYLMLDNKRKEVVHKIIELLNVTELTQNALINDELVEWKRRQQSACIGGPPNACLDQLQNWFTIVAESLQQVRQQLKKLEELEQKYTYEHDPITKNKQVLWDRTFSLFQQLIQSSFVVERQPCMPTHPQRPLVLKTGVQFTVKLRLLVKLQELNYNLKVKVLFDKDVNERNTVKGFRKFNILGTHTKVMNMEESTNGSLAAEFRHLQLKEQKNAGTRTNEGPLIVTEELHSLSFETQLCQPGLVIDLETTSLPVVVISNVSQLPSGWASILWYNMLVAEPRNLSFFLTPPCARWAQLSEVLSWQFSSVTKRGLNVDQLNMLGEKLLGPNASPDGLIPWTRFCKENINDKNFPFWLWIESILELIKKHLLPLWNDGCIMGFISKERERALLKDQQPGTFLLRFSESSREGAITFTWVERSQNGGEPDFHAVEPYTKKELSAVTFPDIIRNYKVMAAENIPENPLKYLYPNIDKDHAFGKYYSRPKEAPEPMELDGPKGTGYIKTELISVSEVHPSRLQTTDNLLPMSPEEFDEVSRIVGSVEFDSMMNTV"}, "source": "paper PMC12533952", "key": {"[1]": {"biological_target": "T1, HBoV1 non-structural protein NP1, Flag-tagged (human bocavirus 1 (HBoV1)) (UniProt Q3YPH5)", "T1 sequence": "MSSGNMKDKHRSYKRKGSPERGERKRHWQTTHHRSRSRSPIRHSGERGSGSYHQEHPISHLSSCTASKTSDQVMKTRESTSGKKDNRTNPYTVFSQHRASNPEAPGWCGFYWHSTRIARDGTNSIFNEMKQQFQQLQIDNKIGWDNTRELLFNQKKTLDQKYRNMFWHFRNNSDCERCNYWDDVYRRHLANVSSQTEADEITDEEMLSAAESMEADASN", "experiment": "co-IP; HEK293T cells co-transfected with NP1-Flag and Myc-tagged STAT1, KPNA proteins or their truncations; at 24 hpt lysates with anti-Flag magnetic beads overnight; Western blot"}, "[2]": {"biological_target": "Karyopherin subunit alpha-1, Myc-tagged (human) (UniProt P52294)", "experiment": "co-IP; HEK293T cells transfected with Myc-tagged KPNA1 and HA-tagged KPNB1, with or without NP1-Flag plasmid; co-IP with anti-HA or anti-Myc antibodies"}, "[3]": {"biological_target": "T2, GST-tagged HBoV1 NP1 (human bocavirus 1 (HBoV1)) (UniProt Q3YPH5)", "T2 sequence": "T1 sequence", "experiment": "pull-down; purified GST-NP1 on glutathione beads incubated with HEK293T cell lysate at 4°C overnight; washed three times; Western blot; only the target purified"}}, "note": "These are yes or no findings as the source states them, for the method shown. Binding seen in cells or lysates may run through a third protein. Some results given as binding are weak or reduced against the parent protein; the word gives no strength. For some of these results: Sequences can lack the tags named with a protein."}
{"substance": "KPNA1 truncation, 1–114 AA region (contains the IBB domain) (from UniProt P52294 1-114) (domain or fragment)", "values": [{"measurement": "binding", "setting": "[1]", "result": "binds"}]}
{"substance": "KPNB1, HA-tagged (from UniProt Q14974 1-876)", "values": [{"measurement": "binding", "setting": "[2]", "result": "binds"}]}
{"substance": "Karyopherin subunit alpha-1 (of HEK293T cells) (from UniProt P52294 1-538)", "values": [{"measurement": "binding", "setting": "[3]", "result": "binds"}]}
{"substance": "Karyopherin subunit alpha-1, Myc-tagged (from UniProt P52294 1-538)", "values": [{"measurement": "binding", "setting": "[1]", "result": "binds"}]}
{"substance": "STAT1 truncation, 318–488 AA region (DNA-binding domain) (from UniProt P42224 318-488) (domain or fragment)", "values": [{"measurement": "binding", "setting": "[1]", "result": "binds"}]}
{"substance": "Signal transducer and activator of transcription 1 (of HEK293T cells) (from UniProt P42224 1-750)", "values": [{"measurement": "binding", "setting": "[3]", "result": "binds"}]}
{"substance": "Signal transducer and activator of transcription 1, Myc-tagged (from UniProt P42224 1-750)", "values": [{"measurement": "binding", "setting": "[1]", "result": "binds"}]}
